# In patent US20240050590A1, “METHODS AND COMPOSITIONS TO REGULATE CHOLESTEROL EFFLUX TO PREVENT, TREAT, OR CURE MACULAR DEGENERATION” (The Trustees of Columbia University in the City of New York, priority 2021, published 2024):
# For at least one compound, name, drawing or mass did not settle the structure.
# Tested on: CES1 expression in EFEMP1^WT iRPE cells
# Experiment: Western blot of CES1 expression in normal (EFEMP1^WT) iRPE cells after treatment with agonists and antagonists
# Format: cell-based, human
# Conditions: EFEMP1^WT iRPE cells from healthy donor, 72 h treatment, vs untreated control; LY294002 10 μM, GW4064 5 μM, GW3965 3 μM
# Procedure: Immunoblot To verify the differentiation of iRPE, CRALBP (Ab15051, Abcam) and RPE65 (401.8B11.3D9, Novas Biologicals) antibodies were used to detect mature RPE markers including CRALBP and RPE65 in iRPE cell lysates via western blot. To determine EFEMP1 expression in iRPE, both cell lysates and culture supernatant were assayed using anti-EFEMP1 antibody (MA5-25740, Thermo Fisher Scientific). To detect CES1 expression in iRPE, anti-CES1 antibody (AF4920, R&D) was used. Anti-alpha tubulin (T5168, Sigma Aldrich), anti-beta actin (A5316, Sigma), or anti-GAPDH (5174, Cell Signaling) antibodies were used to detect house-keeping proteins. The cell lysates were collected using RIPA buffer (Thermo Fisher Scientific).
# To understand the upstream regulators of CES1 expression, the iRPE cells from healthy donor were treated with Gefitnib ([…], Sigma Aldrich), ML385 ([…], Sigma Aldrich), LY294002 (10 μM, Sigma Aldrich), GW4064 (5 μM, Sigma Aldrich), or GW3965 (3 μM, Sigma Aldrich) for 72 h. Anti-CES1 (AF4920, R&D) and anti-alpha tubulin (T5168, Sigma Aldrich) antibodies were used to detect CES1 and tubulin expression, respectively. The signal was detected using Immobilon Western Chemiluminescent HRP Substrate (Millipore). The blot was quantified using ImageJ for signal intensity.
smiles,measurement,value
O=c1cc(N2CCOCC2)oc2c(-c3ccccc3)cccc12 [LY294002],CES1 expression level (western blot),reduced CES1 expression
